According to patent publication US20130345268A1, “Methods and Compositions for the Treatment of RAS Associated Disorders” (The Trustees of Dartmouth College, priority 2009, published 2013):

tested on: T265 (NF1-/-) and STS26T (NF1+/+) MPNST cell lines; assay: NF1 screen: differential growth inhibition of T265 versus STS26T MPNST cells; type: cell-based, human; conditions: Table 4; 26T IC50 versus T265 IC50

SMILES | Fold Difference
N=C(N)SCc1cn(-c2ccccc2)nc1-c1cccc(Br)c1 [Formula Ia] | 38.7
Cc1ccc(Cn2c(=N)n(CC(O)c3ccc(Br)cc3)c3ccccc32)cc1 (stereo not drawn) [VIII] | 17.7
CCc1cc(-c2ccccc2OS(=O)(=O)c2ccc3ccccc3c2)nn1CCNCCc1ccc(OC)c(OC)c1 [V] | 8.1

Some results come without the dose or concentration used.
